These are yes or no findings as the source states them, for the method shown. Binding seen in cells or lysates may run through a third protein. Some results given as binding are weak or reduced against the parent protein; the word gives no strength. Where a sequence is shown, tags or fusion partners need not be part of it.
Columns and labels:
[1] = biological target: T1, FLAG-ArgRS (human), P54136; experiment: co-IP; MSC purification: 293T transfected with FLAG-ArgRS or FLAG-p43, lysate on anti-FLAG M2 affinity gel 2 h at 4 °C, washed with PBS four times, eluted with 3xFLAG peptides; Coomassie staining and Western blots; details: remark: other sources report otherwise
T1 chain: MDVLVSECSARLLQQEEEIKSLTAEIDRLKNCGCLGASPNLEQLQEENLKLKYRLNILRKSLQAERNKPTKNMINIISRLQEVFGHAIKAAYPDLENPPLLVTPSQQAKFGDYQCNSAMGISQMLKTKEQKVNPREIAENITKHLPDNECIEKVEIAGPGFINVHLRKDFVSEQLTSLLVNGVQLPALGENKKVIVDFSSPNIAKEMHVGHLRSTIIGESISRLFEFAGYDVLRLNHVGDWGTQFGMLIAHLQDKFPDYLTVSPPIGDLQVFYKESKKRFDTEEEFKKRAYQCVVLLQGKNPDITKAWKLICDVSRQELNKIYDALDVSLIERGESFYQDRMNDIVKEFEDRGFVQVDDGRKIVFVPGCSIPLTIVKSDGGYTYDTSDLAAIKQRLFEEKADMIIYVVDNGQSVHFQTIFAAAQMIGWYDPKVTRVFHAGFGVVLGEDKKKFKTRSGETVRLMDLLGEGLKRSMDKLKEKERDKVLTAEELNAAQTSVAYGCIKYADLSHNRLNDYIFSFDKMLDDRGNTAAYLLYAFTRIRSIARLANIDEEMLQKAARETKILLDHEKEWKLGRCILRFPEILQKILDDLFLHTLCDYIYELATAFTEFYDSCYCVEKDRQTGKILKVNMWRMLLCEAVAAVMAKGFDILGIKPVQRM

[2] = biological target: T1, FLAG-ArgRS (human), P54136; experiment: co-IP; 293T extracts overexpressing FLAG-tagged full-length or truncated ArgRS, p43 or GlnRS; IP with FLAG antibody, Western blot with antibodies against MSC components; details: remark: other sources report otherwise
FLAG-p43 (human), Q12904 = biological target: T2, FLAG-p43 (human), Q12904; experiment: co-IP; MSC purification: 293T transfected with FLAG-ArgRS or FLAG-p43, lysate on anti-FLAG M2 affinity gel 2 h at 4 °C, washed with PBS four times, eluted with 3xFLAG peptides; Coomassie staining and Western blots; details: remark: other sources report otherwise
T2 chain: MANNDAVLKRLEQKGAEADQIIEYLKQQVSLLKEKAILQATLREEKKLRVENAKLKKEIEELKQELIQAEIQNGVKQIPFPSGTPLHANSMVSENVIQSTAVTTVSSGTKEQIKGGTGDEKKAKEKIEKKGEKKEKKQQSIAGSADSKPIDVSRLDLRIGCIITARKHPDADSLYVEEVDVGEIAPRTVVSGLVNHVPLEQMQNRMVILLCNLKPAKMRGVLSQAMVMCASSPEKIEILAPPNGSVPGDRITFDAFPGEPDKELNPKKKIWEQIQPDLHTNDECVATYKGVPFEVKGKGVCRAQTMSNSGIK

FLAG-p43 (human) = biological target: T3, FLAG-p43 (human) (UniProt Q12904); experiment: as above
T3 sequence: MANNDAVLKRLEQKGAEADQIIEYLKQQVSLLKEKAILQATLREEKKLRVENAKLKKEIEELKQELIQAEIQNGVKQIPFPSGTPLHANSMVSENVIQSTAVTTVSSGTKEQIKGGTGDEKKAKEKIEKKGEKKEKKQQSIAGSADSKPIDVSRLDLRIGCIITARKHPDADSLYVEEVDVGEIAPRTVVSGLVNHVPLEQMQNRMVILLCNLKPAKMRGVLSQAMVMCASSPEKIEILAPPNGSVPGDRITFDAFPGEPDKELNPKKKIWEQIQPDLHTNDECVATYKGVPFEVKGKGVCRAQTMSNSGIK

B1: methionyl-tRNA synthetase (MetRS), endogenous, P56192 1-900 (enzyme)
chain: MRLFVSDGVPGCLPVLAAAGRARGRAEVLISTVGPEDCVVPFLTRPKVPVLQLDSGNYLFSTSAICRYFFLLSGWEQDDLTNQWLEWEATELQPALSAALYYLVVQGKKGEDVLGSVRRALTHIDHSLSRQNCPFLAGETESLADIVLWGALYPLLQDPAYLPEELSALHSWFQTLSTQEPCQRAAETVLKQQGVLALRPYLQKQPQPSPAEGRAVTNEPEEEELATLSEEEIAMAVTAWEKGLESLPPLRPQQNPVLPVAGERNVLITSALPYVNNVPHLGNIIGCVLSADVFARYSRLRQWNTLYLCGTDEYGTATETKALEEGLTPQEICDKYHIIHADIYRWFNISFDIFGRTTTPQQTKITQDIFQQLLKRGFVLQDTVEQLRCEHCARFLADRFVEGVCPFCGYEEARGDQCDKCGKLINAVELKKPQCKVCRSCPVVQSSQHLFLDLPKLEKRLEEWLGRTLPGSDWTPNAQFITRSWLRDGLKPRCITRDLKWGTPVPLEGFEDKVFYVWFDATIGYLSITANYTDQWERWWKNPEQVDLYQFMAKDNVPFHSLVFPCSALGAEDNYTLVSHLIATEYLNYEDGKFSKSRGVGVFGDMAQDTGIPADIWRFYLLYIRPEGQDSAFSWTDLLLKNNSELLNNLGNFINRAGMFVSKFFGGYVPEMVLTPDDQRLLAHVTLELQHYHQLLEKVRIRDALRSILTISRHGNQYIQVNEPWKRIKGSEADRQRAGTVTGLAVNIAALLSVMLQPYMPTVSATIQAQLQLPPPACSILLTNFLCTLPAGHQIGTVSPLFQKLENDQIESLRQRFGGGQAKTSPKPAVVETVTTAKPQQIQALMDEVTKQGNIVRELKAQKADKNEVAAEVAKLLDLKKQLAVAEGKPPEAPKGKKKK
Q: How did the binding [1] turn out when B1 was run?
A: The binding was “binds”.

B2: glutaminyl-tRNA synthetase (GlnRS), endogenous, P47897 1-775 (enzyme)
chain: MAALDSLSLFTSLGLSEQKARETLKNSALSAQLREAATQAQQTLGSTIDKATGILLYGLASRLRDTRRLSFLVSYIASKKIHTEPQLSAALEYVRSHPLDPIDTVDFERECGVGVIVTPEQIEEAVEAAINRHRPQLLVERYHFNMGLLMGEARAVLKWADGKMIKNEVDMQVLHLLGPKLEADLEKKFKVAKARLEETDRRTAKDVVENGETADQTLSLMEQLRGEALKFHKPGENYKTPGYVVTPHTMNLLKQHLEITGGQVRTRFPPEPNGILHIGHAKAINFNFGYAKANNGICFLRFDDTNPEKEEAKFFTAICDMVAWLGYTPYKVTYASDYFDQLYAWAVELIRRGLAYVCHQRGEELKGHNTLPSPWRDRPMEESLLLFEAMRKGKFSEGEATLRMKLVMEDGKMDPVAYRVKYTPHHRTGDKWCIYPTYDYTHCLCDSIEHITHSLCTKEFQARRSSYFWLCNALDVYCPVQWEYGRLNLHYAVVSKRKILQLVATGAVRDWDDPRLFTLTALRRRGFPPEAINNFCARVGVTVAQTTMEPHLLEACVRDVLNDTAPRAMAVLESLRVIITNFPAAKSLDIQVPNFPADETKGFHQVPFAPIVFIERTDFKEEPEPGFKRLAWGQPVGLRHTGYVIELQHVVKGPSGCVESLEVTCRRADAGEKPKAFIHWVSQPLMCEVRLYERLFQHKNPEDPTEVPGGFLSDLNLASLHVVDAALVDCSVALAKPFDKFQFERLGYFSVDPDSHQGKLVFNRTVTLKEDPGKV
Q: How did the binding [2] turn out when B2 was run?
A: Its binding is “binds”.

Q: And the binding [1]?
A: The binding was “binds”.

B3: aspartyl-tRNA synthetase (AspRS), endogenous, P14868 1-501 (enzyme)
chain: MPSASASRKSQEKPREIMDAAEDYAKERYGISSMIQSQEKPDRVLVRVRDLTIQKADEVVWVRARVHTSRAKGKQCFLVLRQQQFNVQALVAVGDHASKQMVKFAANINKESIVDVEGVVRKVNQKIGSCTQQDVELHVQKIYVISLAEPRLPLQLDDAVRPEAEGEEEGRATVNQDTRLDNRVIDLRTSTSQAVFRLQSGICHLFRETLINKGFVEIQTPKIISAASEGGANVFTVSYFKNNAYLAQSPQLYKQMCICADFEKVFSIGPVFRAEDSNTHRHLTEFVGLDIEMAFNYHYHEVMEEIADTMVQIFKGLQERFQTEIQTVNKQFPCEPFKFLEPTLRLEYCEALAMLREAGVEMGDEDDLSTPNEKLLGHLVKEKYDTDFYILDKYPLAVRPFYTMPDPRNPKQSNSYDMFMRGEEILSGAQRIHDPQLLTERALHHGIDLEKIKAYIDSFRFGAPPHAGGGIGLERVTMLFLGLHNVRQTSMFPRDPKRLTP
Q: Which results are given for B3?
A: binding [1]: binds; binding (FLAG-p43 (human), Q12904): binds

B4: p38, endogenous, Q13155 1-320 (protein)
chain: MPMYQVKPYHGGGAPLRVELPTCMYRLPNVHGRSYGPAPGAGHVQEESNLSLQALESRQDDILKRLYELKAAVDGLSKMIQTPDADLDVTNIIQADEPTTLTTNALDLNSVLGKDYGALKDIVINANPASPPLSLLVLHRLLCEHFRVLSTVHTHSSVKSVPENLLKCFGEQNKKQPRQDYQLGFTLIWKNVPKTQMKFSIQTMCPIEGEGNIARFLFSLFGQKHNAVNATLIDSWVDIAIFQLKEGSSKEKAAVFRSMNSALGKSPWLAGNELTVADVVLWSVLQQIGGCSVTVPANVQRWMRSCENLAPFNTALKLLK
Q: Which results are given for B4?
A: binding [2]: binds; binding [1]: binds

B5: p18, endogenous, O43324 1-174 (protein)
chain: MAAAAELSLLEKSLGLSKGNKYSAQGERQIPVLQTNNGPSLTGLTTIAAHLVKQANKEYLLGSTAEEKAIVQQWLEYRVTQVDGHSSKNDIHTLLKDLNSYLEDKVYLTGYNFTLADILLYYGLHRFIVDLTVQEKEKYLNVSRWFCHIQHYPGIRQHLSSVVFIKNRLYTNSH
Q: B5 was tested. Which binding [1] did it give?
A: The binding was “binds”.

B6: methionyl-tRNA synthetase (MetRS), endogenous (enzyme, UniProt P56192 1-900)
chain: MRLFVSDGVPGCLPVLAAAGRARGRAEVLISTVGPEDCVVPFLTRPKVPVLQLDSGNYLFSTSAICRYFFLLSGWEQDDLTNQWLEWEATELQPALSAALYYLVVQGKKGEDVLGSVRRALTHIDHSLSRQNCPFLAGETESLADIVLWGALYPLLQDPAYLPEELSALHSWFQTLSTQEPCQRAAETVLKQQGVLALRPYLQKQPQPSPAEGRAVTNEPEEEELATLSEEEIAMAVTAWEKGLESLPPLRPQQNPVLPVAGERNVLITSALPYVNNVPHLGNIIGCVLSADVFARYSRLRQWNTLYLCGTDEYGTATETKALEEGLTPQEICDKYHIIHADIYRWFNISFDIFGRTTTPQQTKITQDIFQQLLKRGFVLQDTVEQLRCEHCARFLADRFVEGVCPFCGYEEARGDQCDKCGKLINAVELKKPQCKVCRSCPVVQSSQHLFLDLPKLEKRLEEWLGRTLPGSDWTPNAQFITRSWLRDGLKPRCITRDLKWGTPVPLEGFEDKVFYVWFDATIGYLSITANYTDQWERWWKNPEQVDLYQFMAKDNVPFHSLVFPCSALGAEDNYTLVSHLIATEYLNYEDGKFSKSRGVGVFGDMAQDTGIPADIWRFYLLYIRPEGQDSAFSWTDLLLKNNSELLNNLGNFINRAGMFVSKFFGGYVPEMVLTPDDQRLLAHVTLELQHYHQLLEKVRIRDALRSILTISRHGNQYIQVNEPWKRIKGSEADRQRAGTVTGLAVNIAALLSVMLQPYMPTVSATIQAQLQLPPPACSILLTNFLCTLPAGHQIGTVSPLFQKLENDQIESLRQRFGGGQAKTSPKPAVVETVTTAKPQQIQALMDEVTKQGNIVRELKAQKADKNEVAAEVAKLLDLKKQLAVAEGKPPEAPKGKKKK
Q: For B6, which binding (FLAG-p43 (human)) is on record?
A: Its binding is “binds”.

B7: arginyl-tRNA synthetase (ArgRS), endogenous, P54136 1-660 (enzyme)
chain: MDVLVSECSARLLQQEEEIKSLTAEIDRLKNCGCLGASPNLEQLQEENLKLKYRLNILRKSLQAERNKPTKNMINIISRLQEVFGHAIKAAYPDLENPPLLVTPSQQAKFGDYQCNSAMGISQMLKTKEQKVNPREIAENITKHLPDNECIEKVEIAGPGFINVHLRKDFVSEQLTSLLVNGVQLPALGENKKVIVDFSSPNIAKEMHVGHLRSTIIGESISRLFEFAGYDVLRLNHVGDWGTQFGMLIAHLQDKFPDYLTVSPPIGDLQVFYKESKKRFDTEEEFKKRAYQCVVLLQGKNPDITKAWKLICDVSRQELNKIYDALDVSLIERGESFYQDRMNDIVKEFEDRGFVQVDDGRKIVFVPGCSIPLTIVKSDGGYTYDTSDLAAIKQRLFEEKADMIIYVVDNGQSVHFQTIFAAAQMIGWYDPKVTRVFHAGFGVVLGEDKKKFKTRSGETVRLMDLLGEGLKRSMDKLKEKERDKVLTAEELNAAQTSVAYGCIKYADLSHNRLNDYIFSFDKMLDDRGNTAAYLLYAFTRIRSIARLANIDEEMLQKAARETKILLDHEKEWKLGRCILRFPEILQKILDDLFLHTLCDYIYELATAFTEFYDSCYCVEKDRQTGKILKVNMWRMLLCEAVAAVMAKGFDILGIKPVQRM
Q: Which binding (FLAG-p43 (human), Q12904) does the source give for B7 here?
A: The binding was “binds”.

B8: p18, endogenous (protein, UniProt O43324 1-174)
chain: MAAAAELSLLEKSLGLSKGNKYSAQGERQIPVLQTNNGPSLTGLTTIAAHLVKQANKEYLLGSTAEEKAIVQQWLEYRVTQVDGHSSKNDIHTLLKDLNSYLEDKVYLTGYNFTLADILLYYGLHRFIVDLTVQEKEKYLNVSRWFCHIQHYPGIRQHLSSVVFIKNRLYTNSH
Q: Which binding (FLAG-p43 (human)) does the source give for B8 here?
A: The binding was “binds”.
